{"source": "patent US20220202699A1", "about": "(priority 2020, published 2022)", "origin": "cited, not measured here", "conditions": "respiratory system of mice", "note": "At least one compound was matched to its structure with a doubt left."}
{"smiles": "CCCCCCCC/C=C\\CCCCCCCC(=O)O[C@H](COC(=O)CCCCCCCCCCCCCCC)COP(=O)(O)OCC(O)CO", "note": "(stereo partly shown) [POPG, 1-palmitoyl-2-oleoyl-sn-glycero-3-phosphoglycerol]", "values": [{"measurement": "anti-inflammation properties", "value": "anti-inflammation properties"}]}
